Data source: PubChem BioAssay AID1259254 (NCATS, 2017)

Assay: 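Gene knock-downs that lead to re-replication, shown by excess G2 DNA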 (primary screen)
Cell system: human HCT116 colorectal cancer cells
Reagent: single siRNA against human genes
Duration: 3 days
Detection: 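Nuclei stained with Hoechst and imaged; cell-cycle phase assigned by DNA content; G2 share scaled per plate, non-targeting siRNA 0%, GMNN siRNA 100%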
Reading the numbers: G2 robust z-score and G2 cells, % of GMNN control: higher = more G2 cells, more excess DNA replication; raw share of cells in G2: higher = larger share of cells with G2 DNA content
Hit rule: 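Active siRNAs have a G2 robust z of 5 or more median absolute deviations over the median, which in these data means about 38% or higher of GMNN control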
Here is an unselected part of about 59,000 deposited reagents. Over the whole deposit, about 1,550 (2.6%) got an active call. 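G2 share is only a proxy for re-replication; each gene was hit by three separate siRNAs, and active genes were retested.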 The raw values are shown without normalisation. The numbers tell different reagents against one gene apart. Not stated in the record: the amount of reagent.

gene	siRNA no.	G2 robust z-score	G2 cells, % of GMNN control	raw share of cells in G2 (%)	Call
CCDC57	1	-0.562	-0.984	3.28	inactive
CCDC57	2	2.1	17.8	9.92	inactive
CCDC57	3	-1.19	-5.41	1.62	inactive
PRR36	1	-1.18	-5.35	0.915	inactive
PRR36	2	-0.741	-2.24	3.51	inactive
PRR36	3	1.12	10.8	9.04	inactive
TK2	1	-0.983	-3.95	4.3	inactive
TK2	2	-0.677	-1.79	4.81	inactive
TK2	3	-0.708	-2.02	3.31	inactive
PTPN6	1	-1	-4.07	3.47	inactive
PTPN6	2	-0.579	-1.11	3.97	inactive
PTPN6	3	3.45	27.3	11.7	inactive

The list goes on, starting with the last 2 of the part before.
gene	siRNA no.	G2 robust z-score	G2 cells, % of GMNN control	raw share of cells in G2 (%)	Call
PTPN6	2	-0.579	-1.11	3.97	inactive
PTPN6	3	3.45	27.3	11.7	inactive
ECE1	1	-1.02	-4.21	3.66	inactive
ECE1	2	-0.78	-2.52	4.8	inactive
ECE1	3	1.85	16	8.81	inactive
MTR	1	-0.399	0.158	5.42	inactive
MTR	2	0.165	4.13	7.11	inactive
MTR	3	-0.756	-2.35	2.42	inactive
CHAC2	1	-0.632	-1.48	3.05	inactive
CHAC2	2	0.806	8.64	6.69	inactive
CHAC2	3	-0.262	1.12	3.5	inactive
RASSF8	1	0.0999	3.67	6.42	inactive
RASSF8	2	-0.905	-3.4	2.73	inactive
RASSF8	3	3.39	26.9	13.2	inactive
SLAMF8	1	0.788	8.51	7.7	inactive
SLAMF8	2	1.5	13.5	10.9	inactive
SLAMF8	3	-0.705	-1.99	2.4	inactive
BCCIP	1	-1.13	-5.01	1.44	inactive
BCCIP	2	-0.0758	2.43	5.31	inactive
BCCIP	3	0.299	5.07	6.88	inactive
